Data taken from paper doi:10.1101/2024.10.03.616509.

Experiments:
[1] = target: T1, MBP-TECPR2 (935-1411 aa) (human) (UniProt O15040); experiment: pull-down
T1 sequence: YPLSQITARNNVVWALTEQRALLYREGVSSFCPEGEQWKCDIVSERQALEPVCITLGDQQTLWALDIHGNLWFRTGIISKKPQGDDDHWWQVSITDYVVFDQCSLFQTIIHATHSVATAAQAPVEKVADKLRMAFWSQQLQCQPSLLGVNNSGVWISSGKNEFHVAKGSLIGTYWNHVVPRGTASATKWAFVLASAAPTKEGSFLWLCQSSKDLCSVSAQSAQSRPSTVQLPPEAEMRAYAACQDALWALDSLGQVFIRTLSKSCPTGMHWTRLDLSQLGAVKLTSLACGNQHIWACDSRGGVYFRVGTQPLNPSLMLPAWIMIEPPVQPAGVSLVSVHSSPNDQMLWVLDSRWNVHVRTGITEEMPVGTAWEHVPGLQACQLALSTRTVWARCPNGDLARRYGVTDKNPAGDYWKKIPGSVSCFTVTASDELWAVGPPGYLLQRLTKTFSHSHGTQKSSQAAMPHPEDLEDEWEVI

GST-Rab5 (Q79L) = experiment: pull-down
GST-Rab5 (S34N) = experiment: pull-down
Rab5 (Q79L) = experiment: two-hybrid
Rab5 (S34N) = experiment: two-hybrid
Rab5 (WT) = experiment: two-hybrid

Molecule: GFP-Rab5 (Q79L)
- binding [1]: binds

B1: MBP-TECPR2 (935-1411 aa) (domain or fragment, UniProt O15040 935-1411)
chain: T1 sequence
- binding (GST-Rab5 (Q79L)): binds
- binding (GST-Rab5 (S34N)): binds weakly

B2: TECPR2 (WT) (protein, UniProt O15040 1-1411)
chain: MASISEPVTFREFCPLYYLLNAIPTKIQKGFRSIVVYLTALDTNGDYIAVGSSIGMLYLYCRHLNQMRKYNFEGKTESITVVKLLSCFDDLVAAGTASGRVAVFQLVSSLPGRNKQLRRFDVTGIHKNSITALAWSPNGMKLFSGDDKGKIVYSSLDLDQGLCNSQLVLEEPSSIVQLDYSQKVLLVSTLQRSLLFYTEEKSVRQIGTQPRKSTGKFGACFIPGLCKQSDLTLYASRPGLRLWKADVHGTVQATFILKDAFAGGVKPFELHPRLESPNSGSCSLPERHLGLVSCFFQEGWVLSWNEYSIYLLDTVNQATVAGLEGSGDIVSVSCTENEIFFLKGDRNIIRISSRPEGLTSTVRDGLEMSGCSERVHVQQAEKLPGATVSETRLRGSSMASSVASEPRSRSSSLNSTDSGSGLLPPGLQATPELGKGSQPLSQRFNAISSEDFDQELVVKPIKVKRKKKKKKTEGGSRSTCHSSLESTPCSEFPGDSPQSLNTDLLSMTSSVLGSSVDQLSAESPDQESSFNGEVNGVPQENTDPETFNVLEVSGSMPDSLAEEDDIRTEMPHCHHAHGRELLNGAREDVGGSDVTGLGDEPCPADDGPNSTQLPFQEQDSSPGAHDGEDIQPIGPQSTFCEVPLLNSLTVPSSLSWAPSAEQWLPGTRADEGSPVEPSQEQDILTSMEASGHLSTNLWHAVTDDDTGQKEIPISERVLGSVGGQLTPVSALAASTHKPWLEQPPRDQTLTSSDEEDIYAHGLPSSSSETSVTELGPSCSQQDLSRLGAEDAGLLKPDQFAESWMGYSGPGYGILSLVVSEKYIWCLDYKGGLFCSALPGAGLRWQKFEDAVQQVAVSPSGALLWKIEQKSNRAFACGKVTIKGKRHWYEALPQAVFVALSDDTAWIIRTSGDLYLQTGLSVDRPCARAVKVDCPYPLSQITARNNVVWALTEQRALLYREGVSSFCPEGEQWKCDIVSERQALEPVCITLGDQQTLWALDIHGNLWFRTGIISKKPQGDDDHWWQVSITDYVVFDQCSLFQTIIHATHSVATAAQAPVEKVADKLRMAFWSQQLQCQPSLLGVNNSGVWISSGKNEFHVAKGSLIGTYWNHVVPRGTASATKWAFVLASAAPTKEGSFLWLCQSSKDLCSVSAQSAQSRPSTVQLPPEAEMRAYAACQDALWALDSLGQVFIRTLSKSCPTGMHWTRLDLSQLGAVKLTSLACGNQHIWACDSRGGVYFRVGTQPLNPSLMLPAWIMIEPPVQPAGVSLVSVHSSPNDQMLWVLDSRWNVHVRTGITEEMPVGTAWEHVPGLQACQLALSTRTVWARCPNGDLARRYGVTDKNPAGDYWKKIPGSVSCFTVTASDELWAVGPPGYLLQRLTKTFSHSHGTQKSSQAAMPHPEDLEDEWEVI
- binding (Rab5 (Q79L)): binds
- binding (Rab5 (S34N)): no binding
- binding (Rab5 (WT)): binds

Results are given in words; binding and its absence hold for the method and conditions named. For part of these data: A result given as binding can be weak or reduced; the word gives no strength. For part of these data: Where a sequence is shown, tags or fusion partners need not be part of it. For part of these data: In cells and extracts the contact can be indirect.
